# Results of single-concentration screens

Values are the deposited “Percent Effect”, in %. The record does not define 0% and 100%; most values in the screen are far below 50% and negative numbers occur (in some assays of this library far below -100). The compounds are a random part of those screened.

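Assay of Toxoplasma gondii numbers, read through their beta-galactosidase reporter with a colour substrate. Tested at 10 µM. The record gives no direction; the compounds picked for IC50 retests had high values, so higher reads as fewer parasites. Size under these conditions: about 67,000 compounds, about 260 of them at 50% or above in at least one test.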

* CC(C)NS(=O)(=O)c1cc(C(=O)O)cc(-n2cc3c(n2)CCC3)c1 : 6.151%
* CCOc1ccccc1N1CCN(C(=O)NCc2cc[nH]n2)CC1 : 13.81%
* CCc1nnc(CNC(=O)CCC2CCCN(C)C2)s1 (centres unmarked) : -11.1%
* CC(C)c1nn(C)c(Cl)c1CNCC(O)c1cccc(F)c1.Cl (centres unmarked) : 1.004%
* [H][C@@]12CCN(C(=O)Cc3cccs3)C[C@]1([H])OCCNC2=O : -65.37%
* COCC(NC(=O)c1ccc[nH]1)c1cccc(C(F)(F)F)c1 (centres unmarked) : 1.533%
* CC(C)Nc1nc(N2CCOCC2)nc2c1CN(CC(=O)N(C)C)CC2 : -0.2773%
* CS(=O)(=O)CCCC(=O)Nc1cc(Cl)c(Cl)cn1 : 5.634%
* Cc1nccn1C1CCCN(C(=O)COCC2CC2)C1 (centres unmarked) : -12.41%
* [H][C@@]12CNC[C@]1([H])[C@H]2CN1CCn2nc(CNC(=O)N(C)C)cc2C1 : 1.616%
* Cc1cnc(NC(=O)c2cccc(CN(C)Cc3ncccc3C)c2)s1 : 47.72%
* OC(CNc1ncnc2c1CCNCC2)C(F)(F)F (centres unmarked) : 5.615%
* COCCN1CCC2(CC1)CC(NC(=O)C(C)C)c1ccccc1O2.O=C(O)C(F)(F)F (centres unmarked) : 2.552%
* Cc1cnn(CC(C)NCc2csc(-c3cnn(C)c3)n2)c1 (centres unmarked) : -4.218%
* CCCC(O)CN1CCC(=O)N(Cc2ccccc2)Cc2ccccc21 (centres unmarked) : -28.81%
* Cc1ccc(N2CCN(C(=O)C(O)c3cccc(Cl)c3)CC2=O)cc1 (centres unmarked) : 5.163%
* CCNC(=O)CN1CCC(c2cc(OC)cc(OC)c2)C1 (centres unmarked) : -4.545%
* Clc1cccc2c3c([nH]c12)CCN(Cc1cc2n(n1)CCCNC2)C3 : 20.4%
* CN1C(=O)CC[C@]12CC[C@@H](NCc1ccsc1)CC2.O=C(O)C(F)(F)F : -8.395%
* CN(Cc1nc(Cc2cccc(F)c2)no1)C1CCOCC1 : 0.8021%
* Cn1nccc1-c1nnn2c1COC(CNCc1nccs1)C2.O=C(O)C(F)(F)F (centres unmarked) : 7.418%
* Cc1ccc(-c2cc(-c3nc(CN4CCN(C)CC4)no3)n[nH]2)cc1 : 18.95%
* CC1CN(CC(=O)NC(C2CC2)C2CC2)CCN1Cc1nccn1C (centres unmarked) : 11.94%
* CC1=C(c2ccc(C)cc2)S(=O)(=O)N=C1N1CCc2ccccc21 : 5.057%
* CCn1c(C)nnc1CN(C)C1CCN(Cc2nnc(C3CC3)o2)C1 (centres unmarked) : -24.1%
* CC(Nc1ccc(N2C(=O)CCCC2=O)cc1)c1ccc(C#N)cc1 (centres unmarked) : -13.55%
* [H][C@@]12CNC[C@]1([H])CN(C(=O)c1cc(F)cc(F)c1)C2 : -11.89%
* Cc1nc(C2CCCN(C(=O)COCCc3ccccc3)C2)no1 (centres unmarked) : 4.421%

Repeated from the top, 3 entries:

{"compound": "CC(C)NS(=O)(=O)c1cc(C(=O)O)cc(-n2cc3c(n2)CCC3)c1", "effect": 6.151}
{"compound": "CCOc1ccccc1N1CCN(C(=O)NCc2cc[nH]n2)CC1", "effect": 13.81}
{"compound": "CCc1nnc(CNC(=O)CCC2CCCN(C)C2)s1", "stereo": "centres unmarked", "effect": -11.1}

Source: ChEMBL document CHEMBL3988442, “University of Dundee, Small-Polar-MMV Screening Library” (2021).